In PubChem BioAssay AID1487 (National Center for Advancing Translational Sciences (NCATS), 2009) one finds AC50 data, which are given here for 49 compounds.

One may read the AC50 as the concentration at which the activity in the assay is half-maximal.

A short description of this experiment: qHTS Assay for Modulators of Lamin A Splicing. Particulars: HeLa LMNA splicing GFP/RFP minigene ratio, 48 h. The text has this: NCGC Assay Overview: Hutchinson-Gilford Progeria Syndrome (HGPS) is a pediatric premature aging disease caused by a spontaneous mutation in the lamin A/C (LMNA) gene. The mutation activates a cryptic splice site in the LMNA pre-mRNA which results in production of a pre-lamin A protein that cannot be processed properly. The mutant protein accumulates in the nucleus and negatively affects numerous cellular functions. Correction of the splicing defect in HGPS patient cells using a targeted oligonucleotide (exo11) leads to reversal of the cellular disease phenotypes. To identify small molecule modulators of aberrant LMNA splicing, a homogenous assay was constructed in HeLa cells that used a GFP containing minigene to report on correction of aberrant splicing in lamin A and a RFP (DsRed2) to report on cell viability, uniformity and nonspecific effects on the assay signal. This assay was adapted to laser-scanning microplate cytometry (Acumen, TTP Labtech) where miniaturization of the assay to a 1,536-well plate format was possible. References: Bowen, W. P.; Wylie, P. G. Application of Laser-Scanning Fluorescence Microplate Cytometry in High Content Screening. Assay Drug Dev Technol 2006;4:209-221. Scaffidi P, Misteli T. Reversal of the cellular phenotype in the premature aging disease Hutchinson-Gilford progeria syndrome. Nat.
NCGC Assay Protocol Summary: Reagents/Controls: Stable clones expressing DsRed2 and lamin A-EGFP were generated by Cell and Molecular Technologies in S3 HeLa cells. HeLa cells were prepared for the assay when they were 70-90% confluent. The cells were counted and resuspended in Opti-MEM I (no phenol red; Gibco), 2% FBS, 1% penicillin/ streptomycin (Gibco) at concentration of 120 cells/uL concentration. The suspension was passed through a Falcon basket filter with pore size 40um (Beckton Dickson). Control titrations: column […] 1536-well plate contained a sixteen point titration (1:2 dilutions) in duplicate of ancitabine (Sigma: A8598) beginning at 40 uM final concentration. Column 2 contained a sixteen point titration (1:2 dilutions) of cycloheximide beginning at 1.4 mM final concentration. Column 3 contained ancitabine at 40 uM and column 4 contained was the vehicle control (0.5% DMSO final concentration). Assay Steps: 5 uL of HeLa cells were plated in Aurora LoBase black clear bottom (cyclic-olefin polymer) 1536-well plates at a final density of 600 cells/well. Controls and library compounds were added with a 1536-well pin array using the Kalypsys pin-tool. The plates were then incubated for 48 hrs in a cell-culture incubator (37 °C; 5% CO2, 98% humidity). Following incubation the plates were read on the Acumen Explorer using the 488 nm laser. Data was collected on objects between 10 and 100 um in size. Cell objects were defined by a 15 um width x 10 um depth filter. The ratio of the total object intensity in PMT1 (500-530 nm emission; GFP) over PMT3 (575-640 nm emission; RFP) was calculated for analysis. Keywords: NIH Roadmap, MLSCN, MLI, MLSMR, qHTS, NCGC, lamin A, Progeria, RNA splicing.
(qHTS replaces the single test concentration by a dilution series.)

Where [1] appears, read: measured here: RFP viability control channel.
[2] abbreviates: measured here: GFP splicing reporter channel.

The structures appear in SMILES notation. Where “and” joins values, the source holds several entries; their conditions need not be identical. Identical values can stand only once. The list shows a part of the results. Shown are side measurements of this screen, not its main read-out; they come without a call. The list favours compounds with an active or inconclusive main result. The note in brackets gives the kind of curve behind each potency; many fits are weak.

With `Cc1cccc(CN2CC=C(c3noc(CCC(=O)Nc4ccc(C)c(F)c4)n3)CC2)c1`, the AC50 under setting [1] was 0.708 µM [falling, single point]. For the compound `COC(=O)[C@@H]1[C@@H](C(=O)OC)C2(c3ccccc3-c3ccccc32)N(c2ccc(Cl)cc2)N1C#N`, under setting [2], the AC50 is 3.16 µM [falling, single point]. Turning to `COc1ccc(C[C@@H]2NC[C@H](O)[C@@H]2OC(C)=O)cc1`, the AC50 is 0.0708 µM [falling, full curve] under setting [2] and 0.0631 µM [falling, full curve] under setting [1]. For the compound `COc1ccc(NC(=O)c2sc3nc4c(cc3c2N)N2CCC4CC2)cc1OC`, the concentration at half-maximal activity (AC50) under setting [2] is 11.2 µM [falling, partial curve, poor fit]. As to `Cc1ccc(-n2c(/C=C\c3ccc(F)cc3)nc3ccccc3c2=O)cc1Cl`, the half-maximal activity concentration (AC50) under setting [1] was 0.0126 µM [rising, full curve, poor fit].

For `CC(Oc1ccccc1)C(=O)Nc1ccc(C(=O)OCc2cc(=O)n3nc(C4CC4)sc3n2)cc1` (centres undefined), the AC50 is 2 µM [falling, partial curve] under setting [2] and 2.24 µM [rising, partial curve, poor fit] under setting [1]. On to `COc1ccc(CCn2c(O)c(C=NCCCO)c(=O)[nH]c2=O)cc1OC`, for which the AC50 under setting [1] is 5.62 µM [rising, single point]. Turning to `O=C(c1cc(C(=O)NCc2ccccc2)c(=O)n(Cc2ccccc2)c1)c1cc(Cl)ccc1O`, the AC50 under setting [1] was 17.8 µM [rising, partial curve].

As for `CN1[C@@H](CC(=O)c2ccccc2)CCC[C@H]1C[C@H](O)c1ccccc1`, the AC50 reads like this: under setting [2], 708 nM [falling, single point] and 3.98 nM [rising, full curve, poor fit]; under setting [1], 0.631 µM [rising, full curve, poor fit]. In the case of `N#CC1=C(N)Oc2c(c(=O)oc3ccccc23)C1c1ccccc1OC(=O)c1cccs1` (centres undefined), the AC50 is 15.8 µM [falling, partial curve] under setting [2] and 35.5 µM [falling, single point] under setting [1]. Consider `CC(C)CCC1(CN2CCCC2=O)C(=O)NC(=O)NC1=O`, for which the half-maximal activity concentration (AC50) under setting [1] was 35.5 µM [falling, partial curve, poor fit]. With `COc1ccc(/C=N/N=C(/N)N[N+](=O)[O-])c(OC)c1`, the AC50 under setting [1] is 1.26 µM [falling, full curve, poor fit]. For `Cc1cccc(N(C)S(=O)(=O)c2cc(-c3cnc(C4CC4)o3)ccc2C)c1`, the AC50 runs as follows: under setting [2], 12.6 µM [rising, single point]; under setting [1], 14.1 µM [rising, single point].

In the case of `O=C1NC(=O)N(Cc2ccco2)C(=O)/C1=C/c1cccn1CCOc1ccccc1Cl`, the AC50 under setting [2] is 25.1 µM [falling, partial curve, poor fit] and the AC50 under setting [1] was 22.4 µM [falling, partial curve, poor fit]. Turning to `COC(=O)NC(=S)Nc1ccccc1NC(=S)NC(=O)OC`, the concentration at half-maximal activity (AC50) by setting is: under setting [2], 22.4 µM [rising, single point]; under setting [1], 35.5 µM [rising, single point]. For the compound `CC(C)(C)NC[C@H](O)c1cc(Cl)c(N)c(Cl)c1`, the concentration at half-maximal activity (AC50) reads like this: under setting [2], 0.00224 µM [falling, full curve, poor fit]; under setting [1], 0.00501 µM [falling, full curve, poor fit]. On to `CCN1C[C@]2(COC)[C@H](O)C[C@H](OC)[C@]34C1C([C@H](OC)[C@H]23)[C@]1(OC(C)=O)C2[C@@H](OC(=O)c3ccccc3)C(O)(C[C@H]24)[C@@H](OC)[C@@H]1O`, for which the AC50 reads like this: under setting [2], 15.8 µM [falling, single point]; under setting [1], 11.2 µM [falling, single point].

Take `CC(C)c1oc(=O)cc2c1[C@@H](O)[C@H]1OC(=O)[C@@]3(C)CC[C@@H](O)[C@@]2(C)C13` (some centres undefined): under setting [1], the concentration at half-maximal activity (AC50) was 15.8 µM [rising, partial curve]. Turning to `C[N+]1=C(/C=C/Nc2ccccc2)C(C)(C)c2ccccc21`, under setting [1], the AC50 is 20 µM [rising, single point]. In the case of `CCOP(=S)(OCC)Oc1ccc2c(C)c(Cl)c(=O)oc2c1`, under setting [1], the AC50 is 0.000794 µM [rising, full curve, poor fit].

On to `O=C(COc1ccc(Br)cc1)N1CCN(Cc2c[nH]c3ccccc23)CC1`, for which the concentration at half-maximal activity (AC50) under setting [2] is 14.1 µM [falling, single point].

Consider `Cc1ccc(Cl)cc1NC(=O)N(Cc1ccc2c(c1)OCO2)C1CCN(Cc2ccccc2)CC1`, for which the AC50 under setting [2] was 5.62 µM [falling, partial curve].

With `Cc1c(C(=O)N2CCC3(CC2)OCCO3)sc2ncnc(N3CCN(c4ccccn4)CC3)c12`, under setting [1], the AC50 is 31.6 µM [rising, single point].

As to `Cc1ccc(CNC(=O)c2ccccc2NC(=O)c2nsc3ccccc23)cc1`, the AC50 is 11.2 µM [falling, partial curve] under setting [2] and 11.2 µM [falling, partial curve] under setting [1]. Regarding `COc1ccc(CC(=O)NC(=S)NNC(=O)COc2c(C)cccc2C)cc1`, the AC50 is, setting by setting: under setting [2], 3.55 µM [rising, partial curve, poor fit]; under setting [1], 22.4 µM [rising, partial curve]. With `C[C@]12CC[C@H]3[C@@H](CCC4C[C@H](O)CC[C@@]43C)[C@@H]1CC[C@@H]2O` (some centres undefined), under setting [1], the concentration at half-maximal activity (AC50) was 0.00398 µM [falling, full curve, poor fit]. In the case of `COc1ccc(N/N=C/c2c(O)n(-c3ccc(C)c(C)c3)c(=O)[nH]c2=O)cc1`, the AC50 under setting [2] was 11.2 µM [rising, partial curve] and the half-maximal activity concentration (AC50) under setting [1] was 14.1 µM [rising, partial curve].

For `CC1=NN=C(c2ccc(N)cc2)c2cc3c(cc2C1)OCO3`, the AC50 under setting [1] was 4.47 µM [falling, partial curve, poor fit]. As for `C=CC[C@]1(O)CCC2C3CCC4=CCCCC4C3CCC21C` (some centres undefined), the half-maximal activity concentration (AC50) under setting [1] was 0.708 µM [falling, single point]. On to `Cc1ccc(Cn2cccc(C(=O)Nc3ccc4c(c3)OCO4)c2=O)cc1`, for which the AC50 reads like this: under setting [2], 0.0178 µM [falling, partial curve, poor fit]; under setting [1], 0.112 µM [falling, full curve, poor fit]. As to `C[C@]12C/C(=C/O)C(=O)C[C@@H]1CC[C@@H]1[C@@H]2CC[C@@]2(C)[C@H]1CC[C@]2(C)O`, the AC50 was 12.6 µM [rising, single point] under setting [2] and 25.1 µM [rising, single point] under setting [1].

Turning to `O=P(O)(O)C(Cl)(Cl)P(=O)(O)O`, the half-maximal activity concentration (AC50) under setting [2] is 0.0891 µM [falling, full curve]. Take `C[C@@]12CCC(=O)C=C1C=C[C@H]1[C@H]3CC[C@](O)(CCC(=O)O)[C@]3(C)CC[C@@H]12`: the AC50 is, setting by setting: under setting [2], 14.1 µM [falling, partial curve, poor fit]; under setting [1], 14.1 µM [falling, single point].

With `CCOC(=O)C(O)(c1ccc(N(C)C(=O)c2ccc(Cl)c(Cl)c2)cc1)C(F)(F)F` (centres undefined), the AC50 under setting [1] is 20 µM [rising, single point].

Consider `CCOC(=O)c1ccc(NC(=O)CSc2cc(=O)n(CC)c3ccccc23)cc1`, for which the concentration at half-maximal activity (AC50) reads like this: under setting [2], 0.0224 µM [falling, full curve]; under setting [1], 0.0126 µM [falling, full curve, poor fit]. In the case of `COc1cccc(OC)c1C1=NCC(=O)Nc2c1oc1ccc(Br)cc21`, the AC50 under setting [1] is 1.12 µM [rising, full curve, poor fit]. `CC(=O)Nc1ccc(N(C(=O)Cn2nnc3ccccc32)C(C(=O)NC2CCCC2)c2ccc(O)c(O)c2)cc1` (centres undefined): the AC50 runs as follows: under setting [2], 0.0562 µM [rising, full curve, poor fit]; under setting [1], 35.5 µM [rising, partial curve].

On to `Cc1c(O)c(O)cc2c1CC=C1[C@]3(C)CC[C@]4(C)CC[C@@](C)(C(=O)O)CC4[C@]3(C)CC[C@]12C` (some centres undefined), for which the concentration at half-maximal activity (AC50) reads like this: under setting [2], 22.4 µM [falling, single point]; under setting [1], 12.6 µM [falling, partial curve]. `CCN(CC)C(=O)Oc1ccc(Cl)c2ccccc12`: the AC50 under setting [1] was 11.2 µM [rising, single point]. Consider `O=C1NC(=S)N(c2ccccc2F)C(=O)/C1=C\c1cccs1`, for which the half-maximal activity concentration (AC50) under setting [2] was 35.5 µM [falling, single point] and the AC50 under setting [1] was 31.6 µM [falling, single point]. Regarding `CC(C)(C)c1nc(N2CCN(C(=O)c3ccco3)CC2)c2nnn(Cc3ccccc3Cl)c2n1`, the AC50 under setting [1] is 0.282 µM [rising, full curve, poor fit].

`CC(=O)O.CC(=O)O.[Cd]`: the concentration at half-maximal activity (AC50) reads like this: under setting [2], 2.82 µM [rising, partial curve]; under setting [1], 10 µM [falling, partial curve, poor fit]. As to `CCC(C)OC(=O)c1c(N)n(Cc2cccs2)c2nc3ccccc3nc12` (centres undefined), the AC50 under setting [2] is 1.26 µM [falling, partial curve] and the concentration at half-maximal activity (AC50) under setting [1] is 1.26 µM [falling, partial curve].

Regarding `Oc1cc2c(cc1O)[C@H]1c3ccccc3CNC1CC2` (some centres undefined), the half-maximal activity concentration (AC50) reads like this: under setting [2], 12.6 µM [falling, partial curve]; under setting [1], 14.1 µM [falling, partial curve]. Take `N=c1c2c(n(Cc3ccc(Cl)cc3Cl)c3c1CCC3)CCCC2`: under setting [1], the AC50 is 12.6 µM [rising, partial curve]. Regarding `CC(=O)c1c(O)c(C)c(O)c(Cc2c(O)c3c(c(C(=O)/C=C/c4ccccc4)c2O)OC(C)(C)C=C3)c1O`, the AC50 was 3.98 µM [falling, full curve, poor fit] under setting [2] and 5.01 µM [rising, full curve] under setting [1]. Consider `COC(=O)c1c(C)n(Cc2ccco2)c2ccc(O)cc12`, for which the AC50 under setting [1] was 15.8 µM [rising, partial curve]. Turning to `Cc1ccccc1N1C(=O)NC(=O)/C(=C\c2cc(Br)c(N3CCOCC3)o2)C1=O`, the AC50 runs as follows: under setting [2], 35.5 µM [falling, single point]; under setting [1], 35.5 µM [falling, single point]. Consider `Cc1cc(O)cc2c1O[C@](C)(CCC[C@H](C)CCC[C@H](C)CCCC(C)C)CC2`, for which the AC50 is, setting by setting: under setting [2], 0.00282 µM [falling, full curve, poor fit]; under setting [1], 0.891 µM [falling, single point].
